The values below come from article PMC7819943, “Rice protein-binding microarrays: a tool to detect cis-acting elements near promoter regions in rice”.

The other results are listed elsewhere or left out.

This assay concerns the target T1, OsSMF1 (Oryza sativa, UniProt Q6ZLB0 1-436).
T1 sequence: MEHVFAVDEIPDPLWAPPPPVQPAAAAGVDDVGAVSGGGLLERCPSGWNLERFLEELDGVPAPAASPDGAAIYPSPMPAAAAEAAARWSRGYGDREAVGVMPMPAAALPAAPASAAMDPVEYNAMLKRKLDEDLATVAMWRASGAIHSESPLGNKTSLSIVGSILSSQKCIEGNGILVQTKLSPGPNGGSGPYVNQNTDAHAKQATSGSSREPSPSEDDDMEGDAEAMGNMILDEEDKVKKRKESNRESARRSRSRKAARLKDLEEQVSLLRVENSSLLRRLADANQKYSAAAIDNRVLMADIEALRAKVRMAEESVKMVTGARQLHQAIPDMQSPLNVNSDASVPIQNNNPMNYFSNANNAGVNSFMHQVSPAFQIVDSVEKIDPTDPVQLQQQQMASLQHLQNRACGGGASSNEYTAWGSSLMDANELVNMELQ
As to the kind of experiment: protein-binding microarray (RPBM); PBS, 2% BSA, 51.3 ng/ul salmon testes DNA, 50 uM zinc acetate, 200 nM TF, 25 C, 1 h; high values mean tight binding. The settings on record: protein: recombinant; tags: N-terminal polyhistidine and DsRed monomer fusion (pET32a); chain copies: 2; label: CyDye5-dUTP incorporated in the synthesized complementary strand; 3' TTTTT single-stranded linker to array surface; dsDNA, one strand shown. The essentials:
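Binding signal is defined as the fluorescence intensity of each feature in arbitrary units, read on an Axon 4000B scanner. Transcription factors with N-terminal polyhistidine and DsRed fusions came from E. coli BL21-CodonPlus and were purified on Ni–NTA. They were incubated at 200 nM for 1 h at 25 °C on a custom Agilent array that had been made double-stranded with Cy5-dUTP, with 50 µM zinc acetate present, and the array was washed.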
On to “AACTCACCCAGTTAATCCAGTCATCAGATAGGAGCAAGATCGGAGTCACCTAGTGCAG”, for which the binding signal was 3610 fluorescence intensity (a.u.).
For “TTTTATGTTATTGAGAGGTACACAGTCACTCTTGATACATCGGAGTCACCTAGTGCAG” the value was 3930 fluorescence intensity (a.u.).
On to “TTGCAACACCGAAAAGGCCACGTACATGCACGTGATGAGCCGGAGTCACCTAGTGCAG”, for which the binding signal was 5610 fluorescence intensity (a.u.).
For “CAAGAAATAACCCAAGATGGTTTTAAATAGAAACCGCAAACGGAGTCACCTAGTGCAG” the value was 3210 fluorescence intensity (a.u.).
For “GTGGTGATAGGTGATGTACACGGCGCCGGGGAGGCGATGACGGAGTCACCTAGTGCAG” the value was 3860 fluorescence intensity (a.u.); for “CCTCCGCATCACCTGCCGCATCAGCCGTGGTGTGGGCTAGCGGAGTCACCTAGTGCAG”, 3720 fluorescence intensity (a.u.); for “CTACTACTACTAACCTGACACAATTTGGATTGACCGATTGCGGAGTCACCTAGTGCAG”, 3820 fluorescence intensity (a.u.).
For “ACGCGAGCATACTTTGTGCACATGGCATGCCATGTAGGATCGGAGTCACCTAGTGCAG” the value was 4400 fluorescence intensity (a.u.); for “GGAATACCATGTGTAGGCCCAGGCGCCCAGCCTATTAACGCGGAGTCACCTAGTGCAG”, 3170 fluorescence intensity (a.u.).
Regarding “CGTTACCACATACGTGCATTTTGCGTGTGTGTATGTATATCGGAGTCACCTAGTGCAG”, the binding signal was 5480 fluorescence intensity (a.u.).
For “CTTCTTCGTGATGCACCTTTTGCTTTACAGCGCTAGCAATCGGAGTCACCTAGTGCAG” the value was 3700 fluorescence intensity (a.u.); for “ACACCATGTCACATCCAACTAGGCCCTCCTCCTCTTTGATCGGAGTCACCTAGTGCAG”, 4410 fluorescence intensity (a.u.); for “TCACCACCTCACTCCACTAACCAGAGAGAGAACGCAGCTACGGAGTCACCTAGTGCAG”, 21000 fluorescence intensity (a.u.).
For “TAGCATTAAGAAAGGACTCGCTGTACGGTCGTAGATAAGTCGGAGTCACCTAGTGCAG” the value was 3260 fluorescence intensity (a.u.).
For “ATCCTGCCGGAGTTGGACCTGGATGCGTTGCTGTCGGCGCCGGAGTCACCTAGTGCAG” the value was 3370 fluorescence intensity (a.u.); for “TTTTGCTTCCGGTGATGTGGTGGTGCTCGGGCCTGTTATTCGGAGTCACCTAGTGCAG”, 4750 fluorescence intensity (a.u.).
For the sequence “AATCAGATGATCGGTGCTGCAGCCATCATTGAAGCCTGTGCGGAGTCACCTAGTGCAG”, the binding signal was 3400 fluorescence intensity (a.u.).
For “CTCTCCTGGGCATGACTCGGGTGAGGCCCAACGGTTCGGGCGGAGTCACCTAGTGCAG” the value was 3740 fluorescence intensity (a.u.); for “TTTGGAGACGACACCAACGCGAGATCGCCACGTCGTGCCGCGGAGTCACCTAGTGCAG”, 6640 fluorescence intensity (a.u.); for “ACACACACTCCCTCTCTCTTTCTGTACAGTGTCATTCCTTCGGAGTCACCTAGTGCAG”, 17700 fluorescence intensity (a.u.).
For “TGGTATTTTCCTGCTTTCCTACACTTCCACATCACCACAACGGAGTCACCTAGTGCAG” the value was 8720 fluorescence intensity (a.u.); for “TTACCTTTTGGGGCTGTTCAAATTGATGTCATTTCAAATCCGGAGTCACCTAGTGCAG”, 15300 fluorescence intensity (a.u.); for “TTCTAACTCACACGTGTACTTTTATATTTAATATATTTATCGGAGTCACCTAGTGCAG”, 7220 fluorescence intensity (a.u.).
For “GCTTTTGTGTTGGCCCGATTGAGATGTGTCATCCGTGACGCGGAGTCACCTAGTGCAG” the value was 6190 fluorescence intensity (a.u.); for “AGAGGGTATACCTAACCCGTAACCCTGACAATTTCCTTAGCGGAGTCACCTAGTGCAG”, 7360 fluorescence intensity (a.u.); for “GTGAGGTACCAAAATTTGTTGCTAGCACCTTCAATTTTACCGGAGTCACCTAGTGCAG”, 3450 fluorescence intensity (a.u.).
For “TCCCAAAATCGGAAACCCGTACTATCTCCGTCACACCCCTCGGAGTCACCTAGTGCAG”, the binding signal is 4120 fluorescence intensity (a.u.).
For “CCCCTACCCCACCCACTGACACATCCTCCCCACGCTACGCCGGAGTCACCTAGTGCAG” the value was 6190 fluorescence intensity (a.u.); for “CCCGCTGCCACCTCCGAGTCCACTTCTCGCCACCCTCTGCCGGAGTCACCTAGTGCAG”, 4400 fluorescence intensity (a.u.).
On to “AAACCATGTCTGACAATTACGCACGTGTGATTACACTTTCCGGAGTCACCTAGTGCAG”, for which the binding signal was 3480 fluorescence intensity (a.u.).
For “CATTAATGCTCCATACATGTGTTAAGCATCTGATGTGTTACGGAGTCACCTAGTGCAG” the value was 4790 fluorescence intensity (a.u.); for “GACAGCAGCAGAGGAGTTCGCAAGACTTCTGACAGGTGGGCGGAGTCACCTAGTGCAG”, 3180 fluorescence intensity (a.u.).
Regarding “ATATGTTGAAGTGTCGAAACGGCTTTCGCTCCCACTAGGTCGGAGTCACCTAGTGCAG”, the binding signal was 29400 fluorescence intensity (a.u.).
For “GTGACAGGTGCCACCTGTTATGAAGACCTACGAACAGTGGCGGAGTCACCTAGTGCAG” the value was 3270 fluorescence intensity (a.u.); for “CCGGTCATGTTTTCAGAAATGGAATCGGCCGGTCAGATTTCGGAGTCACCTAGTGCAG”, 3360 fluorescence intensity (a.u.); for “ACGGGCAGTCGGGCACGACCGAGACCCTCGCGCCCACGCACGGAGTCACCTAGTGCAG”, 26500 fluorescence intensity (a.u.).
For “TACGTTACCCTGCCGGATGATTGCCCTACCCTCATCTCATCGGAGTCACCTAGTGCAG” the value was 25400 fluorescence intensity (a.u.).
On to “ATACTATTATATCGGGCCTCCACGGAGAGCGGGGACGGGGCGGAGTCACCTAGTGCAG”, for which the binding signal was 3380 fluorescence intensity (a.u.).
For “GCAAGTCCAACTCCAACTCAGCGCCTCCGCTCCTCCTCACCGGAGTCACCTAGTGCAG” the value was 6960 fluorescence intensity (a.u.); for “ACCCATTTTCAGTGGCAGGGTTATTGACACCACACTCACACGGAGTCACCTAGTGCAG”, 3140 fluorescence intensity (a.u.).
For “TTGACTTGTACATAGTAATGATTGGCAGGTAATGACGTACCGGAGTCACCTAGTGCAG” the value was 3280 fluorescence intensity (a.u.); for “AGATCCAAACACGTCACAATATACCATCACTGCGGCCGCCCGGAGTCACCTAGTGCAG”, 7500 fluorescence intensity (a.u.).
For “CGCACCGACCGGTCCACGTGGAACGGACGGCGAGGATGAACGGAGTCACCTAGTGCAG” the value was 6560 fluorescence intensity (a.u.); for “AATATACAACACTATATTATTAATGCAGTCCAATCGATATCGGAGTCACCTAGTGCAG”, 37000 fluorescence intensity (a.u.).
Turning to “GATAAAATGTGTACAATGTCAGCATCACATGGCTCCCACACGGAGTCACCTAGTGCAG”, the binding signal is 4330 fluorescence intensity (a.u.).
As for “GTTGGAAAGGATGACGAGAATTGCGTGTCACCCTCTTCCCCGGAGTCACCTAGTGCAG”, the binding signal is 9160 fluorescence intensity (a.u.).
For “ACTTACTGATAAGCACGCCAGACCACCTCACTGGCTCACTCGGAGTCACCTAGTGCAG” the value was 3600 fluorescence intensity (a.u.).
For “TCTTTCTTTCCAGCCACGACAGGCAAACCTACCCCAACGCCGGAGTCACCTAGTGCAG” the value was 3190 fluorescence intensity (a.u.); for “GTACGTCGCACTGGGGAAGCTGCTCACGTGGACGGAATGGCGGAGTCACCTAGTGCAG”, 7020 fluorescence intensity (a.u.).
For “CCCTGTTTGAAGCAGTGACGCAATGGTGTATAATTTGGGCCGGAGTCACCTAGTGCAG” the value was 4830 fluorescence intensity (a.u.); for “GGAGAGGGGTGATGAGTGATGACGTGATCCCATTGTATTTCGGAGTCACCTAGTGCAG”, 4970 fluorescence intensity (a.u.).
Regarding “ACACCATAACGCCTCGTCGGCATGATGTTAGCGCCTTCTTCGGAGTCACCTAGTGCAG”, the binding signal is 4080 fluorescence intensity (a.u.).
As for “CCAGTCTATTCTTATCCACGTTGCTGGTCGACTTAGGACCCGGAGTCACCTAGTGCAG”, the binding signal was 4000 fluorescence intensity (a.u.).
For “GAAGGCAGGGTCGAGCGGTCAGTGGTGCGCATCTCCGACACGGAGTCACCTAGTGCAG” the value was 3250 fluorescence intensity (a.u.).
